The list shows a part of the results. Further columns of the screen follow, without active or inactive calls. The list favours compounds with an active or inconclusive main result. Potencies come from curve fits of mixed quality, noted in brackets.

The nature of the experiment: qHTS Assay for Lipid Storage Modulators in Drosophila S3 Cells.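 As to cell number change: cells counted by Cell Tracker Red CMTPX staining in the red channel.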 Conditions: BODIPY lipid droplet fluorescence, 18-24 h; for cell number change: measured here: cell count max response, cells fed with added oleic acid. A digest of the protocol:
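Drosophila S3 cells got compounds at several concentrations plus oleic acid (400 uM solution). Laser-scanning cytometry with 488 nm excitation read lipid droplets at 500-530 nm and cells at 575-640 nm. Percent activity was relative to 20 uM Triacsin C.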
(In general: In qHTS, concentration-response curves come from the screen itself.)

Where [1] appears, read: measured here: cell number channel AC50, cells fed with added oleic acid.
Where [2] appears, read: measured here: lipid fluorescence (Fed channel) AC50, cells fed with added oleic acid.

For `CCCCN(C(=S)Nc1cccc(C)c1C)c1c(N)n(CCC)c(=O)[nH]c1=O`, the cell number change was found to be 11.1%. Also, the AC50 (in general, the midpoint of the concentration-response curve, whichever way the signal moves) under setting [1] was 0.82 µM [falling, partial curve]. Further, the AC50 under setting [2] is 29.1 µM [falling, single point].

For `CCN(CC)C(=S)SC1=CCS(=O)(=O)C1`, the cell number change was determined as 28.5%. In addition, the AC50 under setting [2] was 29.1 µM [rising, single point].

Turning to `CC(C)(C)c1ccc(-c2nnc(SCC(=O)Nc3sc4c(c3C#N)CCCC4)o2)cc1`, the cell number change came to 21.4%. In addition, the AC50 under setting [2] is 20.6 µM [rising, single point].

For `CCOc1ccc(N=C2C(=O)N(CN3CCOCC3)c3ccccc32)cc1`, the cell number change was -5.35%. Under setting [2], the AC50 is 0.0291 µM [falling, full curve, poor fit].

Regarding `CC(=O)c1cnc2c(C(=O)O)cnn2c1C`, the cell number change is -4.42%. Moreover, the AC50 under setting [2] is 6.51 µM [falling, single point].

As for `COc1ccccc1CC(=O)Nc1ccc(-c2nnc(-c3ccco3)o2)cc1`, the cell number change is -9.56%.

As to `CCN(CC)CC(=O)N1N=C(c2cccs2)CC1c1ccco1` (centres undefined), the cell number change was -116%. Moreover, under setting [1], the AC50 is 16.4 µM [falling, partial curve].

With `CCC(=O)Nc1nnc(S(=O)(=O)N2CCc3ccccc32)s1`, the cell number change was -7.49%.

As to `O=C1[C@@H]2[C@H](Cc3ccc(O)cc3)N[C@]3(C(=O)Nc4ccccc43)[C@@H]2C(=O)N1c1ccc(F)cc1`, the cell number change is -0.0641%. Moreover, the AC50 under setting [2] is 4.11 µM [falling, single point].

`Oc1ccccc1Nc1ncnc2c1oc1ccccc12`: the cell number change is -12.3%.

In the case of `Cc1ccc(COc2ccc(/C=N/NC(=O)CN3CCCCC3)cc2)cc1`, the cell number change came out at 3.63%. The AC50 under setting [1] was 0.00411 µM [rising, full curve, poor fit].

For `O=C(O)CCCCCNC(=O)c1ccc(C(=O)NCCCCCC(=O)O)cc1`, the cell number change was -16.3%. Further, the AC50 under setting [2] was 1.16 µM [falling, full curve].

For the compound `CCOC(=O)C1CCN(C(=O)COC(=O)COc2ccccc2OC)CC1`, the cell number change is -7.22%. Also, under setting [2], the concentration at half-maximal activity (AC50) was 29.1 µM [falling, single point].

In the case of `O=c1ccc(C(F)(F)F)cn1Cc1cc(=O)n2cc(Br)ccc2n1`, the AC50 under setting [2] is 14.6 µM [rising, partial curve].

For `COc1ccc(CNCCSc2nnnn2C)c(OC)c1OC`, the cell number change was 16.9%. In addition, the AC50 under setting [2] is 0.517 µM [falling, full curve, poor fit].

As for `Cc1ccc(S(=O)(=O)N2CCCC(C(=O)N3CCN(c4ccccc4)CC3)C2)cc1` (centres undefined), the cell number change was -39.2%. For the same compound, the AC50 under setting [1] was 32.6 µM [falling, single point]. Besides, under setting [2], the AC50 was 11.6 µM [falling, partial curve].

`COc1ccccc1CNC(=O)COC(=O)c1cnccn1`: the cell number change was -2.91%.

On to `COc1ccc(/C=N/Nc2nc(-c3ccc(C)cc3)c(C#N)c(=O)[nH]2)cc1`, for which the cell number change is 80.9%. The AC50 under setting [1] is 2.06 µM [rising, partial curve].

For the compound `Cc1ccc(S(=O)(=O)N(CC(=O)NCC2CCCO2)Cc2cccc(C)c2)cc1` (centres undefined), the cell number change is 14.5%. Besides, the AC50 under setting [2] is 0.116 µM [rising, full curve, poor fit].

For `CCOC(=O)C1(CCOc2ccccc2)CCN(CCCn2cccn2)CC1`, the cell number change amounted to 1.65%. For the same compound, the AC50 under setting [2] was 0.82 µM [falling, full curve, poor fit].

`Cc1cccc(NC(=S)N=Nc2c(O)n(C)c3ccc(S(=O)(=O)N4CCOCC4)cc23)c1`: the cell number change was 9.59%. Also, under setting [2], the AC50 is 7.31 µM [falling, single point].

Take `Cc1ccc(S(=O)(=O)N/N=C2/CC(c3ccccc3)Oc3ccccc32)cc1[N+](=O)[O-]` (centres undefined): the cell number change was -8.56%. For the same compound, under setting [2], the AC50 was 18.4 µM [rising, single point].

In the case of `COc1ccc(Cl)cc1-c1nc(SCC(=O)N(C)CCC#N)n[nH]1`, the cell number change turned out to be 12.5%. Moreover, under setting [1], the AC50 was 0.411 µM [falling, single point].

On to `COCC(=O)N1CCC(Oc2ccc(C(=O)N(C)C3CCCCC3)cc2)CC1`, for which the cell number change came to 4.54%. In addition, the AC50 under setting [2] is 1.16 µM [rising, full curve, poor fit].

For the compound `CCc1ccc(NC(=S)N(Cc2ccccc2)Cc2ccccn2)cc1`, the cell number change was 60.7%. In addition, the half-maximal activity concentration (AC50) under setting [1] was 20.6 µM [rising, partial curve].

On to `CCOC(=O)COc1cc2oc(=O)cc(C)c2cc1[N+](=O)[O-]`, for which the cell number change was -27.2%. In addition, the AC50 under setting [2] is 29.1 µM [falling, single point].

For `Cc1ccc(SCc2cc(=O)[nH]c(N3CCCCC3)n2)cc1`, the cell number change is 4.7%.

For `Cc1ccc(S(=O)(=O)NC(C)CCc2ccccc2)cc1` (centres undefined), the AC50 reads like this: under setting [1], 0.00461 µM [falling, full curve, poor fit]; under setting [2], 0.13 µM [falling, full curve, poor fit].

In the case of `Cc1cc(C(=O)COc2nncc3ccccc23)c(C)n1C`, the cell number change was 23.9%. Further, the AC50 under setting [1] was 0.58 µM [rising, single point]. Moreover, the AC50 under setting [2] was 4.11 µM [rising, single point].

On to `O=C(NCCc1nc2ccccc2[nH]1)Nc1ccccc1`, for which the cell number change is -17.1%. In addition, under setting [2], the AC50 is 5.17 µM [falling, full curve, poor fit].

Take `CCN(CC(=O)Nc1ccc(NC(C)=O)cc1)C(=O)CSC(=S)N1CCCC1`: the cell number change was -38.4%. For the same compound, the AC50 under setting [1] was 20.6 µM [falling, single point]. Also, the AC50 under setting [2] was 20.6 µM [falling, single point].

For `CCC(C)C(=O)Nc1cccc(SC)c1` (centres undefined), the cell number change was -43.4%. Besides, the AC50 under setting [1] is 29.1 µM [falling, single point]. The AC50 under setting [2] is 0.058 µM [falling, full curve, poor fit].

Take `CC[C@@]1(O)C(=O)OCc2c1cc1n(c2=O)Cc2cc3c(N)cccc3nc2-1`: the cell number change is -22.6%. For the same compound, the AC50 under setting [2] is 0.0231 µM [falling, full curve, poor fit].

On to `Cc1cccc(C)c1NC(=O)CN(C)C(=O)C1CCN(c2ncnc3sc(C)c(C)c23)CC1`, for which the cell number change was determined as 3.19%. Further, the AC50 under setting [1] was 0.731 µM [rising, partial curve]. In addition, the AC50 under setting [2] is 2.31 µM [rising, partial curve].

Regarding `c1cc2c(cc1-c1[nH]ncc1CN1CC3C[C@@H]4CC1C[C@H](C3)C4)OCO2`, the cell number change was 12.7%.

For the compound `CN1CCN(c2ccc(C(=O)c3cn(-c4ccc(F)c(Cl)c4)nn3)cc2)CC1`, under setting [2], the AC50 was 4.61 µM [falling, partial curve].

For the compound `Cc1cccc(NC(=O)c2cc(S(=O)(=O)N3CCC4(CC3)OCCO4)ccc2F)c1`, under setting [2], the half-maximal activity concentration (AC50) is 6.51 µM [rising, single point].

For the compound `CCOc1ccc(N(CC(=O)NCCc2ccccc2)C(=O)CCC(=O)Nc2nccs2)cc1`, the cell number change was -5.13%.

As for `O=C(CC12CC3CC(CC(C3)C1)C2)NCCN1CCOCC1`, the cell number change is -10.6%. Also, the concentration at half-maximal activity (AC50) under setting [2] is 0.731 µM [falling, full curve, poor fit].

Take `COc1ccc(NC(=O)CSc2nccn2-c2cccc(OC)c2)cc1`: the cell number change is -20.9%. Under setting [2], the AC50 was 29.1 µM [falling, single point].

On to `CC(=O)c1c(C)[nH]c(C(=O)Nc2cccc(S(=O)(=O)N(C)c3ccccc3)c2)c1C`, for which the cell number change was -25.5%. In addition, under setting [2], the AC50 was 0.82 µM [falling, full curve, poor fit].

Turning to `Cc1ccc(S(=O)(=O)N(NC2=NS(=O)(=O)c3ccccc32)C(=O)c2ccccc2)cc1`, the cell number change is -2.29%. Under setting [2], the AC50 is 32.6 µM [rising, single point].

On to `c1ccc(COCCN2CCN(CCOCc3ccccc3)CC2)cc1`, for which the cell number change was -6.33%.

For the compound `O=C(NCc1ccco1)Nc1ccccc1Cl`, under setting [2], the AC50 was 6.51 µM [falling, single point].

Consider `CCN(CC)C(=O)CSc1nc2nc(C)cc(C)c2c(=O)[nH]1`, for which the cell number change worked out at 121%. Further, the AC50 under setting [2] is 0.58 µM [falling, single point].

For the compound `CCc1noc(C)c1C(=O)Nc1cc(Cl)ccc1N1CCCC1`, the cell number change was found to be 46.5%. The AC50 under setting [1] was 14.6 µM [rising, partial curve].

For `CN(Cc1nc(Cc2ccccc2F)no1)Cc1cccc2ncccc12`, the cell number change worked out at 6.79%. The AC50 under setting [2] is 6.51 µM [rising, single point].

As for `CC(C)C[C@H](NC(=O)N1CCn2c1nc1ccccc12)C(=O)NCc1ccco1`, the cell number change worked out at 1.22%.

As to `CC(C)n1c(O)c(N=Nc2ccc(Cl)nn2)c2ccccc21`, the cell number change was -16.3%. Moreover, the AC50 under setting [2] is 6.51 µM [falling, single point].

Take `CCOC(=O)c1c(NC(=O)CN2C(=O)NC3(CCC(C)CC3)C2=O)sc(C(=O)N(C)C)c1C` (centres undefined): the AC50 under setting [2] was 0.58 µM [rising, full curve].

For the compound `COc1cc(C(=O)NC(=S)Nc2ccccc2N2CCOCC2)cc(OC)c1OC`, the cell number change is 13%.

Consider `CC(Nc1nc(C(F)(F)F)nc2ccccc12)c1cccs1` (centres undefined), for which the cell number change is -19%. Besides, the AC50 under setting [2] was 6.51 µM [rising, single point].

For the compound `Cc1nc2cc(-c3ccccc3)nn2c(C)c1CCC(=O)N1CCN(c2ccccc2)CC1`, the cell number change is -62%. The AC50 under setting [1] is 0.651 µM [falling, full curve]. Further, the AC50 under setting [2] is 29.1 µM [falling, single point].

For `CN(Cc1ccc(C(C)(C)C)cc1)C(=O)C1CCN(C(=O)Nc2ccccc2)CC1`, the cell number change was -30.7%. Moreover, the AC50 under setting [1] was 9.2 µM [falling, partial curve, poor fit]. In addition, the AC50 under setting [2] is 18.4 µM [falling, partial curve].

As for `O=C(O)CSc1c(-c2cccs2)[nH]c2ccccc12`, the cell number change is 3.14%.

Regarding `Cc1ccc(S(=O)(=O)N2C(=O)CCC2C(N)=O)cc1` (centres undefined), the cell number change was 1.59%.

As to `CCOc1ccc(OCCOCCn2ccnc2)cc1`, the AC50 runs as follows: under setting [1], 0.731 µM [rising, single point]; under setting [2], 1.46 µM [rising, partial curve].

In the case of `CC(=O)c1ccccc1NC(=O)COc1ccc(N(C)S(=O)(=O)c2ccc(C)c(C)c2)cc1`, the cell number change is -6.25%. Under setting [2], the AC50 is 29.1 µM [falling, single point].

With `Cc1ccccc1NC(=O)COC(=O)c1cc(=O)c2ccccc2o1`, the cell number change came to 6.78%. For the same compound, the AC50 under setting [2] is 0.731 µM [falling, single point].

Consider `CC(C)c1ccc(CN2CCN(S(=O)(=O)c3ccc(Cl)s3)CC2)cc1`, for which the cell number change amounted to 6.37%.

As for `O=S(=O)(NC1CCN(S(=O)(=O)c2ccc3c(c2)OCCO3)C1)c1c(F)cccc1F` (centres undefined), the cell number change was -14%. Moreover, the AC50 under setting [2] is 4.61 µM [falling, single point].

Take `Cc1ccccc1C(=O)N1CCC(C(=O)Nc2ccc(S(=O)(=O)N3CCOCC3)cc2)CC1`: the cell number change was -12.8%. Further, the AC50 under setting [2] is 23.1 µM [falling, partial curve, poor fit].

For the origin of these results see PubChem BioAssay AID2685 (National Center for Advancing Translational Sciences (NCATS), 2010).
